The values that follow come from paper PMC9045721.

Protein sequences, listed by entry. Tags and fused reporters are not part of them. Lines headed by an entry give the natural chain unless they say otherwise; changes in a name come on top.
UniProt Q9HC16: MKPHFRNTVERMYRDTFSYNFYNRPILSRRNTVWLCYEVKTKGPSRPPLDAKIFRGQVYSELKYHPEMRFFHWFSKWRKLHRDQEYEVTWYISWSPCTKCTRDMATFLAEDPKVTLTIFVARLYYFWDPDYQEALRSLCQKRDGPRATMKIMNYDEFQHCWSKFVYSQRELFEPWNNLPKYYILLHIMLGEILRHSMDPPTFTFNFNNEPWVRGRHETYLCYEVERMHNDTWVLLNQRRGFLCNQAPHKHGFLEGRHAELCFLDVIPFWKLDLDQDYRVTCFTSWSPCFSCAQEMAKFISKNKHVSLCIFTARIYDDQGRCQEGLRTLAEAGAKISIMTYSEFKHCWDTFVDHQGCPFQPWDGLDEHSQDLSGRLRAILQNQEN
UniProt P31941: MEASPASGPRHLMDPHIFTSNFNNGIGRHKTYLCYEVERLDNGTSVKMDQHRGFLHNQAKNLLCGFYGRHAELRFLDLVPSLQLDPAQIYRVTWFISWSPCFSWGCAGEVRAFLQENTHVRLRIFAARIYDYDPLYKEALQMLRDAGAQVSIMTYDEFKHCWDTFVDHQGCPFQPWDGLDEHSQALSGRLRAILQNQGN

Test [1] deals with A3G (1-384)-mycHis (human) (UniProt Q9HC16). Description: BLI; Octet RED; A3-mycHis proteins loaded on Ni-NTA biosensors (12.5 ug/ml A3Bctd and A3A, 8 ug/ml A3G); MBP-BORF2 200 to 6.25 nM; 20 mM tris-HCl (pH 8), 300 mM NaCl; 30°C; association 1200 s, dissociation 1800 s; 1:2 binding model; both purified.
Test [2] concerns the target A3A (1-199)-mycHis (human) (UniProt P31941). Described as above.

These are yes or no findings as the source states them, for the method shown. Some binding calls cover weakened binding; strength is not graded here. Where a sequence is shown, tags or fusion partners need not be part of it.

B1: MBP-BORF2 (1 to 826) (enzyme, UniProt P03190 1-826)
chain: MATTSHVEHELLSKLIDELKVKANSDPEADVLAGRLLHRLKAESVTHTVAEYLEVFSDKFYDEEFFQMHRDELETRVSAFAQSPAYERIVSSGYLSALRYYDTYLYVGRSGKQESVQHFYMRLAGFCASTTCLYAGLRAALQRARPEIESDMEVFDYYFEHLTSQTVCCSTPFMRFAGVENSTLASCILTTPDLSSEWDVTQALYRHLGRYLFQRAGVGVGVTGAGQDGKHISLLMRMINSHVEYHNYGCKRPVSVAAYMEPWHSQIFKFLETKLPENHERCPGIFTGLFVPELFFKLFRDTPWSDWYLFDPKDAGDLERLYGEEFEREYYRLVTAGKFCGRVSIKSLMFSIVNCAVKAGSPFILLKEACNAHFWRDLQGEAMNAANLCAEVLQPSRKSVATCNLANICLPRCLVNAPLAVRAQRADTQGDELLLALPRLSVTLPGEGAVGDGFSLARLRDATQCATFVVACSILQGSPTYDSRDMASMGLGVQGLADVFADLGWQYTDPPSRSLNKEIFEHMYFTALCTSSLIGLHTRKIFPGFKQSKYAGGWFHWHDWAGTDLSIPREIWSRLSERIVRDGLFNSQFIALMPTSGCAQVTGCSDAFYPFYANASTKVTNKEEALRPNRSFWRHVRLDDREALNLVGGRVSCLPEALRQRYLRFQTAFDYNQEDLIQMSRDRAPFVDQSQSHSLFLREEDAARASTLANLLVRSYELGLKTIMYYCRIEKAADLGVMECKASAALSVPREEQNERSPAEQMPPRPMEPAQVAGPVDIMSKGPGEGPGGWCVPGGLEVCYKYRQLFSEDDLLETDGFTERACESCQ
Regarding B1, the binding entry in test [1] and in test [2] was “binds weakly” throughout.
